In PubChem BioAssay AID2685 (National Center for Advancing Translational Sciences (NCATS), 2010):
The other results are listed elsewhere or left out. These are further read-outs of the screen, such as a control signal, another cell line or another target. No call is given for them. The list favours compounds with an active or inconclusive main result. The note in brackets gives the kind of curve behind each potency; many fits are weak.

Assay: qHTS Assay for Lipid Storage Modulators in Drosophila S3 Cells;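 on cell number change: cells counted by Cell Tracker Red CMTPX staining in the red channel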
Conditions: BODIPY lipid droplet fluorescence, 18-24 h; for cell number change: measured here: cell count max response, cells fed with added oleic acid
Procedure, shortened: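 Laser-scanning cytometry quantifies lipid droplet accumulation (500–530 nm total intensity; droplet/cell object ratio) in oleic acid-fed (400 uM added) Drosophila S3 cells treated with a concentration series. 20 uM Triacsin C defined 100% inhibition.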

[1] = measured here: cell number channel AC50, cells fed with added oleic acid
[2] = measured here: lipid fluorescence (Fed channel) AC50, cells fed with added oleic acid

CC(C)C(=O)NC(=S)Nc1ccc(S(=O)(=O)N2CCN(C)CC2)cc1
cell number change: -33.3%
AC50 [1]: 29.1 µM [falling, single point]

O=C(Nc1cccc([N+](=O)[O-])c1)NC1CCCCCCC1
cell number change: 5.78%
AC50 [2]: 6.51 µM [falling, partial curve, poor fit]

CCOc1cc2c(cc1OCC)C(c1ccccc1)N(c1ccccc1)C(=O)C2 (configuration not stated)
cell number change: 5.08%
AC50 [2]: 7.31 µM [rising, partial curve, poor fit]

Cc1noc(C)c1S(=O)(=O)N1CCCC1C(=O)NC(C)(C)C (configuration not stated)
cell number change: -11.2%

CCOC(=O)c1sc(-c2ccccn2)nc1C
cell number change: 48.5%
AC50 [1]: 1.64 µM [rising, partial curve, poor fit]
AC50 [2]: 5.8 µM [falling, single point]

CCOc1ccc(S(=O)(=O)N2CCN(c3ccc(C)cc3C)CC2)cc1
cell number change: 35.3%
AC50 [1]: 29.1 µM [rising, partial curve]

O=C(Nc1ccccn1)c1ccc(Cl)s1
cell number change: 40%
AC50 [2]: 0.316 µM [rising, full curve, poor fit]

COc1ccc(NC(=O)C2=C(C)NC(=O)NC2c2cccc(OC)c2OC)c(OC)c1 (configuration not stated)
cell number change: 106%
AC50 [1]: 2.59 µM [rising, full curve]
AC50 [2]: 2.06 µM [rising, full curve]

COc1ccc(C2=NCCn3nc4ccccc4c32)cc1
cell number change: 14.3%
AC50 [2]: 0.58 µM [rising, single point]

CCOc1ncccc1C(=O)N1CCN(c2cccc(C)c2C)CC1
cell number change: -19.9%
AC50 [1]: 4.11 µM [falling, single point]
AC50 [2]: 1.64 µM [falling, partial curve]

O=C(N/N=C/c1cccc(O)c1)c1cc(-c2ccccc2)nc2ccccc12
cell number change: 25.7%
AC50 [2]: 0.366 µM [falling, full curve]

COc1ccc(-n2nc(C(=O)NCC(=O)N3CCN(c4cccc(Cl)c4)CC3)c3ccccc3c2=O)c(OC)c1
cell number change: 20.3%
AC50 [2]: 29.1 µM [rising, single point]

COc1ccc2cc3cc(C(=O)NCCCN4CCC(C)CC4)oc3nc2c1
cell number change: 56.9%
AC50 [1]: 29.1 µM [rising, single point]

CCOC(=O)c1ccc(NC(=S)NCCc2ccccc2F)cc1
cell number change: 2.43%

c1ccc(-n2cnc3cc(NCc4ccncc4)ccc32)cc1
AC50 [2]: 0.092 µM [rising, full curve, poor fit]

O=C(NC1=NCCS1)C12CC3CC(C1)CC(C(=O)NC1=NCCS1)(C3)C2
AC50 [1]: 2.06 µM [falling, partial curve]
AC50 [2]: 0.58 µM [falling, single point]

C/C(N)=C(/C#N)C(=O)COC(=O)c1ccccc1Oc1ccccc1
cell number change: 18%
AC50 [1]: 0.0517 µM [rising, full curve, poor fit]
AC50 [2]: 0.00461 µM [rising, full curve, poor fit]

CCOc1ccc(N2CC(O)=C(c3ccccc3)C2=N)cc1
cell number change: -5.46%
AC50 [1]: 6.51 µM [rising, single point]

Cc1ccc(C(=O)Cn2c(NCCO)nc3ccccc32)cc1
cell number change: 2.37%
AC50 [2]: 2.91 µM [rising, single point]

O=C(NCc1ccco1)c1cc2sccc2n1Cc1ccccc1
cell number change: -53.6%
AC50 [1]: 18.4 µM [falling, partial curve]
AC50 [2]: 8.2 µM [falling, partial curve]

CC(Oc1ccc2ccc(=O)oc2c1)C(=O)NCCN1CCOCC1 (configuration not stated)
cell number change: 16.4%
AC50 [2]: 29.1 µM [rising, single point]

O=C(O)c1cc(C(=O)O)cc(-c2ccc(/C=c3/sc4nc5ccccc5n4c3=O)o2)c1
cell number change: 9.34%
AC50 [2]: 0.164 µM [falling, full curve, poor fit]

Cc1ccccc1/C=C1\CCCc2ccccc2C1=O
cell number change: -24.6%
AC50 [2]: 29.1 µM [falling, single point]

N=c1c2c(-c3ccccc3)c(-c3ccccc3)n(Cc3ccco3)c2ncn1CCN1CCOCC1
cell number change: 1.24%
AC50 [1]: 0.517 µM [falling, full curve]
AC50 [2]: 9.2 µM [falling, partial curve, poor fit]

O=c1[nH]c(N/N=C\c2ccc3c(c2)OCO3)nc2ccccc12
cell number change: -45.2%
AC50 [2]: 29.1 µM [falling, single point]

COc1cccc2sc3ccc(C#Cc4ccc(N)cc4)cc3c(=O)c12
cell number change: -47.3%
AC50 [1]: 32.6 µM [falling, single point]
AC50 [2]: 0.231 µM [falling, full curve, poor fit]

Oc1ccc(C(=S)N2CCCC2)cc1
cell number change: -6.87%

Nc1nc(-c2ccccc2)c(N=Nc2ccc(Cl)cc2)s1
cell number change: -79.3%
AC50 [1]: 29.1 µM [falling, single point]
AC50 [2]: 10.3 µM [falling, partial curve]

Cc1ccc(-c2nc(CS(=O)CC(=O)NC3CC3)c(C)o2)cc1 (configuration not stated)
cell number change: -12.7%
AC50 [2]: 0.231 µM [rising, full curve, poor fit]

COc1ccc(Nc2c(-c3ccc(OC)cc3)nc3cnccn23)cc1
cell number change: 0.814%
AC50 [1]: 6.51 µM [rising, single point]
AC50 [2]: 3.26 µM [rising, single point]

COc1cc(C)ccc1OCC(=O)NC1CCCCCC1
cell number change: -1.65%
AC50 [2]: 0.092 µM [rising, full curve, poor fit]

CCOC1(/N=C(\C)NS(=O)(=O)c2ccc(Cl)cc2)C(C)=CC(=O)C=C1C
cell number change: -7.65%

COC(=O)Cn1c(=NC(=O)c2ccc([N+](=O)[O-])s2)sc2cc(Br)ccc21
AC50 [1]: 29.1 µM [rising, single point]

CN=C(Nc1cc(C)nn1-c1ccccc1)c1ccc(F)cc1
cell number change: 2.88%

CC(=O)Nc1ccc(S(=O)(=O)NC(CC(=O)O)c2ccc(C)cc2)cc1 (configuration not stated)
cell number change: -25.4%
AC50 [2]: 4.61 µM [falling, partial curve]

COc1cc2ccccc2cc1C(=O)OCC(=O)N1CCOCC1
cell number change: -18.4%
AC50 [2]: 4.61 µM [falling, partial curve, poor fit]

O=C(c1ccc(F)cc1)N1CCCC(C(=O)N2CCCCC2)C1 (configuration not stated)
cell number change: -5.9%
AC50 [2]: 13 µM [rising, partial curve]

COc1ccc(CNC(=O)c2nnn(Cc3ccc(OC)cc3)c2N)cc1
cell number change: -31.1%
AC50 [1]: 9.2 µM [falling, partial curve, poor fit]

CC1CCCC(C)N1CCCNC(=O)c1csc2c1CCCCC2 (configuration not stated)
cell number change: 32.4%
AC50 [1]: 0.184 µM [rising, full curve, poor fit]

Cc1ccc(-c2nc3ccccc3c(=O)n2NC(=S)N(C)C)cc1
cell number change: 12.7%
AC50 [2]: 0.58 µM [rising, full curve, poor fit]

Cc1cc(=O)oc2c(C(=O)/C=C/c3ccccc3)c(O)ccc12
cell number change: 21.2%
AC50 [2]: 6.51 µM [rising, partial curve, poor fit]

Cc1nn(-c2ccccc2)c(/N=C/c2ccccc2O)c1-c1ccccc1
cell number change: 14.4%
AC50 [2]: 9.2 µM [rising, partial curve]

CCOc1ccc(Nc2cc(=O)oc3ccccc23)cc1
AC50 [2]: 18.4 µM [falling, single point]

CN1CC2([N+](=O)[O-])CC=C(Oc3ccccc3)C([N+](=O)[O-])(C1)C2 (configuration not stated)
cell number change: -39.8%
AC50 [1]: 13 µM [falling, partial curve, poor fit]
AC50 [2]: 18.4 µM [falling, single point]

Cc1ccc(-n2c(N)c(C(=O)Nc3c(C)n(C)n(-c4ccccc4)c3=O)c3nc4ccccc4nc32)cc1C
cell number change: -26.4%
AC50 [2]: 29.1 µM [falling, single point]

O=C(N[C@@H](Cc1ccccc1)C(=O)NCCc1c[nH]c2ccccc12)c1ccco1
cell number change: 1.68%
AC50 [2]: 0.206 µM [rising, single point]

CN(C)C(=O)CN1c2cccc3cccc(c23)S1(=O)=O
cell number change: 22.8%
AC50 [2]: 0.00461 µM [rising, full curve, poor fit]

CS(=O)(=O)N1CCC(Oc2ccccc2C(=O)NC2CCCCCC2)CC1
cell number change: -14.9%
AC50 [2]: 0.651 µM [falling, full curve]

Cc1ccc2oc(C(=O)NCc3ncc(C)[nH]3)c(C)c2c1
cell number change: 38.4%
AC50 [2]: 29.1 µM [rising, single point]

Cc1ccc(-c2csc3ncn(CC(=O)O)c(=O)c23)cc1C
cell number change: -5.22%

O=C(CSC1=NS(=O)(=O)c2cc(Cl)ccc2N1)Nc1cccc(F)c1
AC50 [2]: 29.1 µM [rising, single point]

CCCCN(CCCNC(=O)C1CCCN(S(=O)(=O)CC)C1)Cc1ccccc1 (configuration not stated)
cell number change: -15.4%
AC50 [2]: 0.0164 µM [falling, full curve, poor fit]

N=C1SC(c2ccccc2)C(=O)N1c1ncc(Cc2ccccc2)s1 (configuration not stated)
cell number change: -58.6%
AC50 [1]: 0.58 µM [falling, partial curve]

COc1ccc(S(=O)(=O)N2CCN(CC(=O)c3ccc(O)c(O)c3)CC2)cc1
cell number change: -48.5%
AC50 [2]: 29.1 µM [falling, single point]

CCN(CC)Cc1c(C(=O)OC)nnn1-c1nonc1N
cell number change: 9.8%
AC50 [2]: 2.31 µM [falling, full curve, poor fit]

O=C(Cn1ncc2c3ccccc3n(Cc3ccccc3F)c2c1=O)NCC1CCCO1 (configuration not stated)
AC50 [2]: 5.17 µM [falling, single point]

COC(=O)C(C)NC(=O)C1CCCN1S(=O)(=O)c1cc(C)c(Cl)cc1C (configuration not stated)
cell number change: -2.21%
AC50 [2]: 0.651 µM [falling, full curve]

Cc1sc2ncnc(SCC(=O)N3c4ccccc4Sc4ccc(Cl)cc43)c2c1C
cell number change: 10.6%
AC50 [2]: 2.91 µM [rising, single point]

CC(C)(C)NC(=O)CN1C(=O)NC(c2ccccc2)(c2ccccc2)C1=O
cell number change: 0.794%
AC50 [2]: 6.51 µM [rising, single point]
